Measured values: paper PMC5241803, “Structural basis for the recognition and degradation of host TRIM proteins by Salmonella effector SopA” (Nature Communications, 2017)
These are yes or no findings as the source states them, for the method shown. In cells and extracts the contact can be indirect.

Target: GFP-NleL (enterohemorrhagic Escherichia coli)
Assay: co-IP; cells (HEK293T) transiently expressing GFP constructs; anti-GFP IP (Chromotek), IP lysis buffer 10 mM Tris-HCl pH 7.5, 100 mM KCl, 2 mM MgCl2, 0.5% NP-40, 2 h at 4 °C; immunoblot for endogenous TRIM56 and TRIM65

B1: MBP-TRIM56 (natural protein, human, UniProt Q9BRZ2 1-755, looked up)
chain: MVSHGSSPSLLEALSSDFLACKICLEQLRAPKTLPCLHTYCQDCLAQLADGGRVRCPECRETVPVPPEGVASFKTNFFVNGLLDLVKARACGDLRAGKPACALCPLVGGTSTGGPATARCLDCADDLCQACADGHRCTRQTHTHRVVDLVGYRAGWYDEEARERQAAQCPQHPGEALRFLCQPCSQLLCRECRLDPHLDHPCLPLAEAVRARRPGLEGLLAGVDNNLVELEAARRVEKEALARLREQAARVGTQVEEAAEGVLRALLAQKQEVLGQLRAHVEAAEEAARERLAELEGREQVARAAAAFARRVLSLGREAEILSLEGAIAQRLRQLQGCPWAPGPAPCLLPQLELHPGLLDKNCHLLRLSFEEQQPQKDGGKDGAGTQGGEESQSRREDEPKTERQGGVQPQAGDGAQTPKEEKAQTTREEGAQTLEEDRAQTPHEDGGPQPHRGGRPNKKKKFKGRLKSISREPSPALGPNLDGSGLLPRPIFYCSFPTRMPGDKRSPRITGLCPFGPREILVADEQNRALKRFSLNGDYKGTVPVPEGCSPCSVAALQSAVAFSASARLYLINPNGEVQWRRALSLSQASHAVAALPSGDRVAVSVAGHVEVYNMEGSLATRFIPGGKASRGLRALVFLTTSPQGHFVGSDWQQNSVVICDGLGQVVGEYKGPGLHGCQPGSVSVDKKGYIFLTLREVNKVVILDPKGSLLGDFLTAYHGLEKPRVTTMVDGRYLVVSLSNGTIHIFRVRSPDS
notes: TRIM56, human, full length, in pMAL-C2X; also called recombinant TRIM56; not shown: MBP, N-terminal, kept
  binding: no binding

B2: endogenous TRIM65 (protein, UniProt Q6PJ69 1-517)
chain: MAAQLLEEKLTCAICLGLYQDPVTLPCGHNFCGACIRDWWDRCGKACPECREPFPDGAELRRNVALSGVLEVVRAGPARDPGPDPGPGPDPAARCPRHGRPLELFCRTEGRCVCSVCTVRECRLHERALLDAERLKREAQLRASLEVTQQQATQAEGQLLELRKQSSQIQNSACILASWVSGKFSSLLQALEIQHTTALRSIEVAKTQALAQARDEEQRLRVHLEAVARHGCRIRELLEQVDEQTFLQESQLLQPPGPLGPLTPLQWDEDQQLGDLKQLLSRLCGLLLEEGSHPGAPAKPVDLAPVEAPGPLAPVPSTVCPLRRKLWQNYRNLTFDPVSANRHFYLSRQDQQVKHCRQSRGPGGPGSFELWQVQCAQSFQAGHHYWEVRASDHSVTLGVSYPQLPRCRLGPHTDNIGRGPCSWGLCVQEDSLQAWHNGEAQRLPGVSGRLLGMDLDLASGCLTFYSLEPQTQPLYTFHALFNQPLTPVFWLLEGRTLTLCHQPGAVFPLGPQEEVLS
  binding: no binding
